Measured values taken from the supplement of paper PMC3682954.
Structures can show the parent of a compound that is named as a salt. ± gives the standard deviation of the averaged measurements. The list shows a part of the results. Most values come without repeats; read them as rough.

Test system: RAW 264.7
Assay: cell viability (MTT) relative to vehicle control; higher = more viable cells
Conditions: stimulus: HMGB1 5 ug/ml, 18 h
[1] = compound concentration: 1 ug/ml

NC(CCP(=O)(O)O)C(=O)O (racemic) [(±)-2-Amino-4-phosphonobutyric acid]
cell viability (compound concentration: 3 uM): 105%

C#C[C@]1(O)CC[C@H]2[C@@H]3CCC4=Cc5nc6nc7ccccc7n6cc5C[C@]4(C)[C@H]3CC[C@@]21C
cell viability (compound concentration: 3 uM): 111%

NCCc1cc(O)c(O)cc1O
cell viability (compound concentration: 3 uM): 114%

CCC(=O)O[C@@](Cc1ccccc1)(c1ccccc1)[C@@H](C)CN(C)C [Levopropoxyphene napsylate]
cell viability (compound concentration: 3 uM): 98.7%

CC(C)=CCC[C@]1(C)C=Cc2c(O)c3c(c(CC=C(C)C)c2O1)O[C@]12C(=C[C@@H]4C[C@H]1C(C)(C)O[C@@]2(C/C=C(/C)C(=O)O)C4=O)C3=O
cell viability (compound concentration: 3 uM): 1.72%

C=CCN(C1=NCCN1)c1c(Cl)cccc1Cl [Alinidine]
cell viability (compound concentration: 3 uM): 109%

O=C1C[C@@H]2OCC=C3CN4CC[C@]56c7ccccc7N1[C@H]5[C@H]2[C@H]3C[C@H]46
cell viability (compound concentration: 3 uM): 101 ± 5.4%

O=C1C[C@@H]2OCC=C3CN4CC[C@]56c7ccccc7N1[C@H]5[C@H]2[C@H]3C[C@H]46 [Strychnine]
cell viability [1]: 100% | cell viability (compound concentration: 3 uM): 113%

N#Cc1nn(-c2c(Cl)cc(C(F)(F)F)cc2Cl)c(N)c1[S+]([O-])C(F)(F)F (stereo unspecified)
cell viability (compound concentration: 3 uM): 107 ± 4.5%

CC[C@@]1(O)C(=O)OCc2c1cc1n(c2=O)Cc2cc3ccccc3nc2-1
cell viability (compound concentration: 3 uM): 4.97%

CC[C@@]1(O)C(=O)OCc2c1cc1n(c2=O)Cc2cc3ccccc3nc2-1 [(S)-(+)-Camptothecin]
cell viability (compound concentration: 3 uM): 38.5%

CC[C@@]1(O)C(=O)OCc2c1cc1n(c2=O)Cc2cc3ccccc3nc2-1 [Camptothecin]
cell viability [1]: 26% | cell viability (compound concentration: 3 uM): 22.5%

CC[C@@]1(O)C(=O)OCc2c1cc1n(c2=O)Cc2cc3ccccc3nc2-1 [Camptothecine (S,+)]
cell viability (compound concentration: 3 uM): 41.5%

COc1cccc(C2(O)CCCCC2CN(C)C)c1 (stereo unspecified)
cell viability (compound concentration: 3 uM): 112%

COc1cccc(C2(O)CCCCC2CN(C)C)c1 (stereo unspecified) [Tramadol]
cell viability (compound concentration: 3 uM): 104 ± 2.6%

COc1cccc(C2(O)CCCCC2CN(C)C)c1 (stereo unspecified) [Tramadol hydrochloride]
cell viability (compound concentration: 3 uM): 113%

CC(CCc1ccccc1)NC(C)C(O)c1ccc(O)cc1 (stereo unspecified) [Nylidrin]
cell viability (compound concentration: 3 uM): 88.2%

CC(CCc1ccccc1)NC(C)C(O)c1ccc(O)cc1 (stereo unspecified) [Nylidrin hydrochloride]
cell viability (compound concentration: 3 uM): 99.2%

CC(CCc1ccccc1)NC(C)C(O)c1ccc(O)cc1 (stereo unspecified)
cell viability (compound concentration: 3 uM): 103%

CC(=O)OC1CN2CCC1CC2 (stereo unspecified)
cell viability (compound concentration: 3 uM): 108%

Cc1c(C(=O)c2cccc3ccccc23)c2cccc3c2n1[C@H](CN1CCOCC1)CO3 [( R)-(+)-WIN 55,212-2 mesylate]
cell viability (compound concentration: 3 uM): 117%

N=C(N)c1ccc(CS(=O)(=O)F)cc1 [4-Amidinophenylmethanesulfonyl fluoride hydrochloride]
cell viability (compound concentration: 3 uM): 99%

C[N+](C)(C)CCCCCCCCCC[N+](C)(C)C [Decamethonium dibromide]
cell viability (compound concentration: 3 uM): 107%

C[N+](C)(C)CCCCCCCCCC[N+](C)(C)C [Decamethonium]
cell viability (compound concentration: 3 uM): 114%

C[N+](C)(C)CCCCCCCCCC[N+](C)(C)C
cell viability (compound concentration: 3 uM): 105%

C[N+](C)(C)CCCCCCCCCC[N+](C)(C)C [Decamethonium bromide]
cell viability (compound concentration: 3 uM): 102%

c1ccc2nc(N3CCNCC3)ccc2c1
cell viability (compound concentration: 3 uM): 97.6%

c1ccc2nc(N3CCNCC3)ccc2c1 [Quipazine dimaleate salt]
cell viability (compound concentration: 3 uM): 106%

CC1C2Cc3ccc(O)cc3C1(C)CCN2CC1CC1 (single isomer, unassigned; (+)) [(+)-Cyclazocine]
cell viability (compound concentration: 3 uM): 108%

CN1C[C@H](C(=O)N[C@]2(C)O[C@@]3(O)[C@@H]4CCCN4C(=O)[C@H](Cc4ccccc4)N3C2=O)C[C@@H]2c3cccc4[nH]cc(c34)C[C@H]21 [Dihydroergotamine]
cell viability (compound concentration: 3 uM): 103%

CN1C[C@H](C(=O)N[C@]2(C)O[C@@]3(O)[C@@H]4CCCN4C(=O)[C@H](Cc4ccccc4)N3C2=O)C[C@@H]2c3cccc4[nH]cc(c34)C[C@H]21 [Dihydroergotamine mesylate]
cell viability [1]: 100%

CN1C[C@H](C(=O)N[C@]2(C)O[C@@]3(O)[C@@H]4CCCN4C(=O)[C@H](Cc4ccccc4)N3C2=O)C[C@@H]2c3cccc4[nH]cc(c34)C[C@H]21 [Dihydroergotamine tartrate]
cell viability (compound concentration: 3 uM): 101%

CN1C[C@H](C(=O)N[C@]2(C)O[C@@]3(O)[C@@H]4CCCN4C(=O)[C@H](Cc4ccccc4)N3C2=O)C[C@@H]2c3cccc4[nH]cc(c34)C[C@H]21 [Dihydroergotamine methanesulfonate]
cell viability (compound concentration: 3 uM): 103%

CN1C[C@H](C(=O)N[C@]2(C)O[C@@]3(O)[C@@H]4CCCN4C(=O)[C@H](Cc4ccccc4)N3C2=O)C[C@@H]2c3cccc4[nH]cc(c34)C[C@H]21
cell viability (compound concentration: 3 uM): 98%

O=C1NCN(c2ccccc2)C12CCN(CC1COc3ccccc3O1)CC2 (stereo unspecified) [Spiroxatrine]
cell viability (compound concentration: 3 uM): 110 ± 1.6%

C[N+]1(C)[C@@H]2CC[C@H]1C[C@@H](OC(=O)C(CO)c1ccccc1)C2 (stereo partly specified) [Methylatropine nitrate]
cell viability (compound concentration: 3 uM): 90.5%

C[N+]1(C)[C@@H]2CC[C@H]1C[C@@H](OC(=O)C(CO)c1ccccc1)C2 (stereo partly specified) [Atropine methyl bromide]
cell viability (compound concentration: 3 uM): 102%

C[N+]1(C)[C@@H]2CC[C@H]1C[C@@H](OC(=O)C(CO)c1ccccc1)C2 (stereo partly specified)
cell viability (compound concentration: 3 uM): 109%

C[N+]1(C)[C@@H]2CC[C@H]1C[C@@H](OC(=O)C(CO)c1ccccc1)C2 (stereo partly specified) [Atropine methyl nitrate]
cell viability (compound concentration: 3 uM): 107%
